Screen size: about 400,000 compounds; about 5,500 (1.4%) were called active. The inconclusive results got no clear call from the source; some entries with a clear call stand among them for comparison. The call rests on the fitted dose curve; in most records, active means well fitted cell-killing curve with a large enough effect; inconclusive means small, poorly fitted or top-dose-only effect, or effect the other way; inactive means flat fitted curve, though single readings scatter. A potency beside an inconclusive call is a rough fit, not a confirmed value.
assay: qHTS assay for MDR1-selective chemotherapeutics: Primary screen using the parental adenocarcinoma cell KB-3-1; settings: KB-3-1 viability, CellTiter-Glo ATP luminescence, 72 h; series mostly up to 46.1 µM; further: nearly all actives have a fitted effect of over 60% in size
Summary of the method: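 Cytotoxicity in the drug-sensitive parental line KB-3-1 was scored as loss of CellTiter-Glo luminescence following 72 h incubation with compound. Values come from curve fitting of normalized concentration-response data.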
Potency means the concentration at half of the fitted maximal effect.

SMILES | Potency
CC1(C)Cc2c(cnn2-c2ccccc2)-c2c1c1ccccc1n2CC(O)CCl (centres undefined) | inconclusive: 29.1 µM [cytotoxic, single point]
COCCCNC(=O)c1c(NC(=O)Cc2coc3cc(C)ccc23)sc2c1CCCC2 | inactive
CC1(C)N=C(N)N=C(N)N1c1ccc(OCCCOc2ccccc2)c(Cl)c1 | inconclusive: 5.8 µM [cytotoxic, full curve, poor fit]
Cn1nnnc1NN=Cc1ccccc1 | inactive
CC(C)CN(C(=O)CN(C)CC(=O)Nc1ccc(Cl)c(C(F)(F)F)c1)c1c(N)n(CC(C)C)c(=O)[nH]c1=O | inactive
CCNC(=S)N=Nc1c(O)n(Cc2ccc(Cl)cc2)c2ccccc12 | inconclusive: 13 µM [cytotoxic, partial curve]
Cc1ccc(C(=O)NCC(=O)N2CCN(c3ccccc3O)CC2)s1 | inactive
Cc1ccc(S(=O)(=O)N2CCC(C(=O)N3CCC[C@H]3C(=O)NCc3ccccc3)CC2)cc1 | inactive
Cc1ccc(S(=O)(=O)N2CCCCC2c2cccnc2)c(C)c1C (centres undefined) | inconclusive: 23.1 µM [cytotoxic, single point]
COCc1c(C#N)c(NCCc2ccccc2)nc(C)c1[N+](=O)[O-] | inconclusive: 29.1 µM [cytotoxic, single point]
COc1ccc(C2CC(O)(c3ccccc3)Oc3cc(OC)cc(OC)c32)cc1 (centres undefined) | inconclusive: 16.4 µM [cytotoxic, single point]
Cc1ccc2cc(C#N)c(SCc3nnc(-c4ccccc4[N+](=O)[O-])o3)nc2c1 | active: 9.2 µM
O=C(Nc1cc(Sc2ccccn2)cc([N+](=O)[O-])c1)c1cccc(F)c1 | active: 13 µM
CCc1cc(C(c2ccc(F)cc2)N2CCOCC2)c(NC(=O)c2ccccc2)s1 (centres undefined) | inconclusive: 32.6 µM [cytotoxic, single point]
Cc1c(C)c(C)c(S(=O)(=O)NCCC(=O)N2CCN(Cc3ccc(C#N)cc3)CC2)c(C)c1C | inconclusive: 29.1 µM [cytotoxic, single point]
Nc1ccc(S(=O)(=O)N2CCOCC2)cc1 | inconclusive: 13 µM [rising, partial curve, poor fit]
CCCCOCCCNC(=O)C[C@@H]1C[C@@]2(C(=O)OCC)CCC=C2N(Cc2ccc(Cl)cc2Cl)C1=O | inconclusive: 29.1 µM [cytotoxic, single point]
CCC(Oc1ccccc1C)C(=O)N1CCCN(C)CC1 (centres undefined) | inactive
Cc1ccc(CSc2nc(N)cc(N)n2)cc1 | inactive
CCOc1ccc2nc(N(CCN(C)C)C(=O)/C=C/c3cccs3)sc2c1 | inconclusive: 18.4 µM [cytotoxic, single point]
CC(=O)N/N=c1\sc2ccccc2n1C | inactive
C[C@@H](CN1CCC[C@H]1CN1C(N)=NC[C@@H]1Cc1ccccc1)N1C[C@@H](Cc2ccccc2)N(CCc2ccc(Cl)c(Cl)c2)C1=N | inconclusive: 11.6 µM [rising, partial curve, poor fit]
CCCN1CCN(CCCNC(=O)c2ccc(NC(=O)C3=C(C)OCCS3)cc2)CC1 | inconclusive: 0.206 µM [rising, full curve]
COc1ccc(O)c(CNc2ccccc2F)c1 | inactive
C=CCn1c(C)cc(C(=O)COc2ccc(N(C)S(=O)(=O)c3ccc(NC(C)=O)cc3)cc2)c1C | inactive

SMILES | Potency
CCC(=O)N1CCCC(C(=O)c2ccc(-c3ccccc3)cc2)C1 (centres undefined) | inconclusive: 0.461 µM [cytotoxic, full curve]
Cc1c(C(=O)Nc2ccccn2)sc2nc3n(c(=O)c12)CCC3 | inconclusive: 16.4 µM [rising, single point]
COc1ccc(OC)c(NC(=O)CSc2nnnn2C2CCCC2)c1 | inactive
O=C(NC(=S)NCC1CCCO1)c1ccco1 (centres undefined) | inactive
COc1ccccc1-n1cnc2cc(NCc3ccco3)ccc21 | active: 0.58 µM
CCc1ccc(C(c2ccccc2)c2c(C)[nH]c3ccccc23)s1 (centres undefined) | inconclusive: 23.1 µM [cytotoxic, single point]
COc1ccc(Cl)cc1C(=O)Nc1ccc2nc3n(c(=O)c2c1)CCCC3 | inactive
CCCCOc1cccc(C(=O)NC(=S)Nc2cccc(C(F)(F)F)c2)c1 | inactive
Cc1ccc(CN2C(=O)N/C(=C/c3ccc(-c4ccc(C(=O)O)cc4)o3)C2=O)cc1 | inactive
Cc1onc(-c2ccccc2)c1C(=O)N[C@@H]1C(=O)N2C1SC(C)(C)[C@@H]2C(=O)O (some centres undefined) | inactive
O=C(C[n+]1cc(Br)cc2ccccc21)c1ccc(F)cc1 | inconclusive: 20.6 µM [cytotoxic, single point]
CNC(=O)NC(=O)CN1C(=O)NC2(CCOc3ccccc32)C1=O (centres undefined) | inconclusive: 32.6 µM [rising, single point]
Cc1ccc(-c2nc3c4ccccc4ccn3c2CN2CCCCC2)cc1 | inactive
O=C(c1ccc(CS(=O)c2cccc(Cl)c2)o1)N1CCN(c2ccccn2)CC1 (centres undefined) | active: 7.31 µM
O=C(Nc1cccc([N+](=O)[O-])c1)c1ccc2c(c1)OCCO2 | inconclusive: 20.6 µM [rising, single point]
Cc1ccccc1NC(=O)Nc1nc(C2CCC(=O)N2)cs1 (centres undefined) | inactive
CC(C)=NOc1cc(NC(=O)CCl)cc([N+](=O)[O-])c1 | active: 18.4 µM
CCOC(=O)c1sc2ccccc2c1S(=O)(=O)Nc1cc(OC)ccc1OC | inactive
Cn1nc(C2CC2)cc1NC(=O)C1(C)CCN1C(=O)CCc1ccccc1 (centres undefined) | inactive
CC1(CNC(=O)C(=O)NCC2(C)CO2)CO1 (centres undefined) | inactive
CC1CCCN(Cc2nc3c(c(=O)n(C)c(=O)n3C)n2CCCc2ccccc2)C1 (centres undefined) | inactive
Cc1ccc(C)c(N2CCN(S(=O)(=O)c3ccc4[nH]c5c(c4c3)CCCC5)CC2)c1 | inconclusive: 18.4 µM [cytotoxic, single point]
CSc1ccc(CN2CCN(C(=O)c3ccc([N+](=O)[O-])cc3)CC2)cc1 | inconclusive: 6.51 µM [cytotoxic, partial curve]
O=C(Nc1ccc(Cl)cn1)c1cccc2ccccc12 | inconclusive: 23.1 µM [cytotoxic, single point]
COc1ccc(NC(=O)C23CC4CC(C2)CC(n2cnc(Br)n2)(C4)C3)cc1Cl | inactive

SMILES | Potency
Brc1ccc(-c2csc3ncnc(-n4nnc5ccccc54)c23)cc1 | inconclusive: 32.6 µM [cytotoxic, single point]
Cc1cccc(NS(=O)(=O)c2csc(C(N)=O)c2)c1 | inconclusive: 29.1 µM [cytotoxic, single point]
CC(=O)c1ccc(NC(=O)CSc2ccc(-c3ccc4c(c3)OCO4)nn2)cc1 | inconclusive: 13 µM [rising, partial curve, poor fit]
Cc1ccc2c(=O)c(C(=O)c3ccccc3)cn(CC(=O)NCc3ccccc3)c2n1 | inactive
CCOc1ccc(NC(=O)CSc2ncc(S(=O)(=O)c3ccc(F)c(C)c3)c(=O)[nH]2)cc1 | inactive
OC(C1=C/C(=C\c2ccncc2)c2ccccc21)c1ccncc1 (centres undefined) | inconclusive: 7.31 µM [cytotoxic, partial curve]
Nc1[nH]c(C(=O)c2ccccc2)c(-c2ccc(Cl)cc2Cl)c1C(=O)NCCc1c[nH]c2ccccc12 | inactive
CCCCN(CC)CCNC(=S)Nc1ccc2nc(N3CCN(C)CC3)cc(C)c2c1 | inconclusive: 29.1 µM [cytotoxic, single point]
COc1cc(OC)cc(-c2c(Sc3ccccc3)c3cc(-c4ccc(OC)c(OC)c4)ccc3n2C)c1 | inconclusive: 11.6 µM [rising, partial curve, poor fit]
COc1ccc(S(=O)(=O)N(C)C[C@H]2OCc3cnnn3CCCC(=O)N([C@H](C)CO)C[C@H]2C)cc1 | inconclusive: 29.1 µM [rising, single point]
COc1ccc(NS(=O)(=O)c2cc(NC(=O)c3cccs3)ccc2N2CCCC2)cc1 | inconclusive: 16.4 µM [cytotoxic, single point]
COc1ccc(/C=N/n2c(SC)nnc2-c2ccccc2)c(OC)c1OC | inconclusive: 4.11 µM [cytotoxic, full curve, poor fit]
Cc1ccc(S(=O)(=O)Nc2c(NC3CCCCC3)c3ccccc3oc2=O)cc1 | inconclusive: 29.1 µM [cytotoxic, single point]
CC(C)c1ccc(NC(=O)C2CC2c2ccccc2)cc1 (centres undefined) | inconclusive: 0.259 µM [rising, full curve]
Oc1ccc(N=Nc2n[nH]c(-c3ccc(Cl)cc3)n2)cc1 | inconclusive: 29.1 µM [cytotoxic, single point]
COc1cccc(C=Nc2cccc3c(=O)[nH][nH]c(=O)c23)c1O | inactive
CCNc1nc(SCCOc2ccc(Cl)cc2Cl)nc(N(C)C)n1 | inactive
COc1cc(NC(=S)NCCC(c2ccccc2)c2ccccc2)c(OC)cc1Cl | inconclusive: 29.1 µM [cytotoxic, single point]
CCN(CC(=O)Nc1c(F)cccc1F)C(=O)c1ccc(N2CCCC2=O)cc1 | inactive
Cc1cccc(NC(=O)CSc2nc3c([nH]c4ccccc43)c(=O)n2-c2cc(C)cc(C)c2)c1 | inactive
COc1cc(OC)cc(C(=O)Nc2nc(-c3nnn(-c4ccc(C)cc4)c3C)ns2)c1 | inconclusive: 29.1 µM [cytotoxic, single point]
O=C(O)c1ccc(/C=N/Nc2nc3ccccc3[nH]2)cc1 | inactive
Cc1ccc(C)c(NC(=O)COC(=O)Cc2ccsc2)c1 | inactive
Cc1ccc(S(=O)(=O)NC(=O)c2cc(C)n(C3CC3)c2C)cc1 | inconclusive: 20.6 µM [cytotoxic, single point]

A stretch from the list above:
SMILES | Potency
CC1(C)N=C(N)N=C(N)N1c1ccc(OCCCOc2ccccc2)c(Cl)c1 | inconclusive: 5.8 µM [cytotoxic, full curve, poor fit]
Cn1nnnc1NN=Cc1ccccc1 | inactive
CC(C)CN(C(=O)CN(C)CC(=O)Nc1ccc(Cl)c(C(F)(F)F)c1)c1c(N)n(CC(C)C)c(=O)[nH]c1=O | inactive
CCNC(=S)N=Nc1c(O)n(Cc2ccc(Cl)cc2)c2ccccc12 | inconclusive: 13 µM [cytotoxic, partial curve]

Source: PubChem BioAssay AID1347075 (National Center for Advancing Translational Sciences (NCATS), 2019)
